Experimental data reported in the supplement of paper PMC10849652.
Some of the results follow.

Protein sequences, listed by entry. Tags and fused reporters are not part of them. Lines headed by an entry give the natural chain unless they say otherwise; changes in a name come on top.
UniProt P20774: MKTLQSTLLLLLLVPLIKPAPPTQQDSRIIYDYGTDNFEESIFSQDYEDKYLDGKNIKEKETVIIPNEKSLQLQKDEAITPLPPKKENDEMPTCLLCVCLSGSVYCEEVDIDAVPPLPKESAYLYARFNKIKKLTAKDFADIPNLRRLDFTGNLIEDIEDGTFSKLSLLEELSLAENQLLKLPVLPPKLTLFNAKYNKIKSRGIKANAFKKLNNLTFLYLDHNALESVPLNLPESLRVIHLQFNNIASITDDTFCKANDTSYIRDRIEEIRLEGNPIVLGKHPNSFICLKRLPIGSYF
UniProt Q9BW27: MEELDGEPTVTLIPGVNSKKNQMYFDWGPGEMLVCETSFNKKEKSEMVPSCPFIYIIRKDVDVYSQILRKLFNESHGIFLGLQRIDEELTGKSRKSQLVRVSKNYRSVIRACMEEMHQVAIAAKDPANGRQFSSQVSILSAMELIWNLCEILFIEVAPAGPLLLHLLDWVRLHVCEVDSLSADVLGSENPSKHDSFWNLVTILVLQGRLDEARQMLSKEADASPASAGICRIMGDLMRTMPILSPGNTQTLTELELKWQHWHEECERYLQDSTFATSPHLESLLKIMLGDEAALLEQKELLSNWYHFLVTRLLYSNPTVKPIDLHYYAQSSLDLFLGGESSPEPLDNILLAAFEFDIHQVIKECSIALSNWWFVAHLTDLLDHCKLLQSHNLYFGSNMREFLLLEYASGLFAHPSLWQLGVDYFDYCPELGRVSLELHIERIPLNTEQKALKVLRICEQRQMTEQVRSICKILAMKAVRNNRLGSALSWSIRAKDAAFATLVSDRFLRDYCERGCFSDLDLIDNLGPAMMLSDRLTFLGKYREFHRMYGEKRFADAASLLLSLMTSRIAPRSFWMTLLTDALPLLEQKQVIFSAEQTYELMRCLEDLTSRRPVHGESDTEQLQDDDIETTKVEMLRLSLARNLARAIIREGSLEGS
UniProt P37198: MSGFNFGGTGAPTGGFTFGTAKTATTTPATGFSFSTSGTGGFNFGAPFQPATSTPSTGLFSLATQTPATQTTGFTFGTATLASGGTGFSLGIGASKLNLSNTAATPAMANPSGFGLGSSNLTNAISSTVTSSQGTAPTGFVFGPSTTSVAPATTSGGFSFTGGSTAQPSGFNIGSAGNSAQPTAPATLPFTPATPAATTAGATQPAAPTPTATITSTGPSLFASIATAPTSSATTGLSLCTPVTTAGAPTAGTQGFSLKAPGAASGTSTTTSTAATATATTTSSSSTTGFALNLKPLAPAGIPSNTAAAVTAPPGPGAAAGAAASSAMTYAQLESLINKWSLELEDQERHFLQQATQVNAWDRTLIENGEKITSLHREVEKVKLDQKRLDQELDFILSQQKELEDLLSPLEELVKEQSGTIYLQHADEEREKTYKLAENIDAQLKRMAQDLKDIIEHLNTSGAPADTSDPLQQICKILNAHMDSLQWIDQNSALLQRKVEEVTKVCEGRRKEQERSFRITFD
UniProt Q9Y530: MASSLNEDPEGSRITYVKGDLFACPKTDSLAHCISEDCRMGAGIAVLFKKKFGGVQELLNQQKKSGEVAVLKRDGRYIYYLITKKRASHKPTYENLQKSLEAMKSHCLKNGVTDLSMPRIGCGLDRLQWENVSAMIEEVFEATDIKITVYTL
UniProt Q9NWU1, whole entry, looked up: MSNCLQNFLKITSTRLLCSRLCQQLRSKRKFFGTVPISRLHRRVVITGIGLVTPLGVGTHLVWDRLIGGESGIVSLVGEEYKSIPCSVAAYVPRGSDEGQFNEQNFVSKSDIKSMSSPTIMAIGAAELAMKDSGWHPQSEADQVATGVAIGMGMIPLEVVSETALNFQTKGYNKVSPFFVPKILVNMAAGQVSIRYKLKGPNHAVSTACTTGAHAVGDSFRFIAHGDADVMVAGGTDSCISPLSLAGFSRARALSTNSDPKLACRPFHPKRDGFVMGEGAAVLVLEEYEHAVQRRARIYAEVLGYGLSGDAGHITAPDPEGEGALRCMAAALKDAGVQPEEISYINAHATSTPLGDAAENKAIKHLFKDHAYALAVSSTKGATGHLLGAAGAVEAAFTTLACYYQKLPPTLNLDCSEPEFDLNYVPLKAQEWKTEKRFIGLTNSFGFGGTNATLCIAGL
UniProt O60313: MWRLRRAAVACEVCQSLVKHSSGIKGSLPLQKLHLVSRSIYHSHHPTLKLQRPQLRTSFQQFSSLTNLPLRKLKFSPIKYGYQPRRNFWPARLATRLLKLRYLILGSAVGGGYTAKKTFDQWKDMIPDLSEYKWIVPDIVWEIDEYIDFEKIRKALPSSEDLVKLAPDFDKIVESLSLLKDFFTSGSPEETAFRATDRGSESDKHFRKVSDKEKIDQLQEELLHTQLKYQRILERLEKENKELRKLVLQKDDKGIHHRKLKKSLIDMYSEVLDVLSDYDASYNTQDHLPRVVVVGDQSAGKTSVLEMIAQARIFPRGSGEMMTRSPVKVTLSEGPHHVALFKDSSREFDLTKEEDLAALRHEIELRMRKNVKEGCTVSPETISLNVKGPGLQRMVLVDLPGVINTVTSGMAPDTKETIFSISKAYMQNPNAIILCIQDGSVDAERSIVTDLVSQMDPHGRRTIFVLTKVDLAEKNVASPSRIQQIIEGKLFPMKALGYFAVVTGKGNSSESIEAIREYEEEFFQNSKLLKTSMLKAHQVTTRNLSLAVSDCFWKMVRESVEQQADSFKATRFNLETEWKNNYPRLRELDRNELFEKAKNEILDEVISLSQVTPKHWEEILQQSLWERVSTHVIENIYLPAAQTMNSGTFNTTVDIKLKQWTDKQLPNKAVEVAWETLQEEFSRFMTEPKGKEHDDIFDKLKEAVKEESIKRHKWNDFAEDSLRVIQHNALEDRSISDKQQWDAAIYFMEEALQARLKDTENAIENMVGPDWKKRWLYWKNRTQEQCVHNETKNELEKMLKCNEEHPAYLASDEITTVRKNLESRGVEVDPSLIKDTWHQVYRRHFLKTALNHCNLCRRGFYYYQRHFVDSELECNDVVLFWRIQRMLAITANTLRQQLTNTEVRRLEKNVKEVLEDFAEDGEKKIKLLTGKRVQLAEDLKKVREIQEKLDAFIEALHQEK
UniProt P00480: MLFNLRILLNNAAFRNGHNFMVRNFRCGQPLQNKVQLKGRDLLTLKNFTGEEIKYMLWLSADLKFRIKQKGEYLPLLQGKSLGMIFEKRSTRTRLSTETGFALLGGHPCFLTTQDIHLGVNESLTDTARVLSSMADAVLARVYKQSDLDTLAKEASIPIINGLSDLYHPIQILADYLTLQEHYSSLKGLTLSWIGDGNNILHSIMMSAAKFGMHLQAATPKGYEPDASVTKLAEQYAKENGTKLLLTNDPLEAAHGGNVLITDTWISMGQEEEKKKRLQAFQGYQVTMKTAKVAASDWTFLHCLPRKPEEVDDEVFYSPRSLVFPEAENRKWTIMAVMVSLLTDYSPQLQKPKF
UniProt Q8NFH3: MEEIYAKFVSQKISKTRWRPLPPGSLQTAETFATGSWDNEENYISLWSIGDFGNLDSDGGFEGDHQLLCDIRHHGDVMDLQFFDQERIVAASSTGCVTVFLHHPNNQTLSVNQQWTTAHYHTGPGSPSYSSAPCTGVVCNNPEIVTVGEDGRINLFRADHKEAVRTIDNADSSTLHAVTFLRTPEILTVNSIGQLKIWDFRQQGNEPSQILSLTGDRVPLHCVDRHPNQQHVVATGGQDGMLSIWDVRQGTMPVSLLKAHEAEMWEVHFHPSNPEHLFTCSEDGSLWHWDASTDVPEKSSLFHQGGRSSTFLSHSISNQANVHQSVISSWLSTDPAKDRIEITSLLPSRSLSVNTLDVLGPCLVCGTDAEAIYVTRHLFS
UniProt Q96MG7: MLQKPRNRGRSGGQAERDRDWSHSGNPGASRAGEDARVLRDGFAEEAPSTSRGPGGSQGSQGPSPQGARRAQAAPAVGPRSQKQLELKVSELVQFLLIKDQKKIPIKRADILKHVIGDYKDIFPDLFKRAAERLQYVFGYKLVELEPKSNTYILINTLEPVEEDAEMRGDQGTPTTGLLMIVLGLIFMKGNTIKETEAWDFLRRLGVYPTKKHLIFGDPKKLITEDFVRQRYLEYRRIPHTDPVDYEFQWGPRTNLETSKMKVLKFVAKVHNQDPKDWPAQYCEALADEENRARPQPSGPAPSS
UniProt Q9BRP4: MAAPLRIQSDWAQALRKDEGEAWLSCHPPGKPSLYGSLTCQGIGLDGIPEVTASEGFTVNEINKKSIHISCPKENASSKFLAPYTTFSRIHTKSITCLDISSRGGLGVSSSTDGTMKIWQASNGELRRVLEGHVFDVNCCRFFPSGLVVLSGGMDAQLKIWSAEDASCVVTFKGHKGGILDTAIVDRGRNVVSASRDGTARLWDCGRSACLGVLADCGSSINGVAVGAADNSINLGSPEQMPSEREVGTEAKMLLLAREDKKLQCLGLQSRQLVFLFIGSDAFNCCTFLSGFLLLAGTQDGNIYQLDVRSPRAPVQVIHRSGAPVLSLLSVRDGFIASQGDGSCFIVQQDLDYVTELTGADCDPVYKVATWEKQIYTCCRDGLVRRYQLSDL
UniProt Q14980: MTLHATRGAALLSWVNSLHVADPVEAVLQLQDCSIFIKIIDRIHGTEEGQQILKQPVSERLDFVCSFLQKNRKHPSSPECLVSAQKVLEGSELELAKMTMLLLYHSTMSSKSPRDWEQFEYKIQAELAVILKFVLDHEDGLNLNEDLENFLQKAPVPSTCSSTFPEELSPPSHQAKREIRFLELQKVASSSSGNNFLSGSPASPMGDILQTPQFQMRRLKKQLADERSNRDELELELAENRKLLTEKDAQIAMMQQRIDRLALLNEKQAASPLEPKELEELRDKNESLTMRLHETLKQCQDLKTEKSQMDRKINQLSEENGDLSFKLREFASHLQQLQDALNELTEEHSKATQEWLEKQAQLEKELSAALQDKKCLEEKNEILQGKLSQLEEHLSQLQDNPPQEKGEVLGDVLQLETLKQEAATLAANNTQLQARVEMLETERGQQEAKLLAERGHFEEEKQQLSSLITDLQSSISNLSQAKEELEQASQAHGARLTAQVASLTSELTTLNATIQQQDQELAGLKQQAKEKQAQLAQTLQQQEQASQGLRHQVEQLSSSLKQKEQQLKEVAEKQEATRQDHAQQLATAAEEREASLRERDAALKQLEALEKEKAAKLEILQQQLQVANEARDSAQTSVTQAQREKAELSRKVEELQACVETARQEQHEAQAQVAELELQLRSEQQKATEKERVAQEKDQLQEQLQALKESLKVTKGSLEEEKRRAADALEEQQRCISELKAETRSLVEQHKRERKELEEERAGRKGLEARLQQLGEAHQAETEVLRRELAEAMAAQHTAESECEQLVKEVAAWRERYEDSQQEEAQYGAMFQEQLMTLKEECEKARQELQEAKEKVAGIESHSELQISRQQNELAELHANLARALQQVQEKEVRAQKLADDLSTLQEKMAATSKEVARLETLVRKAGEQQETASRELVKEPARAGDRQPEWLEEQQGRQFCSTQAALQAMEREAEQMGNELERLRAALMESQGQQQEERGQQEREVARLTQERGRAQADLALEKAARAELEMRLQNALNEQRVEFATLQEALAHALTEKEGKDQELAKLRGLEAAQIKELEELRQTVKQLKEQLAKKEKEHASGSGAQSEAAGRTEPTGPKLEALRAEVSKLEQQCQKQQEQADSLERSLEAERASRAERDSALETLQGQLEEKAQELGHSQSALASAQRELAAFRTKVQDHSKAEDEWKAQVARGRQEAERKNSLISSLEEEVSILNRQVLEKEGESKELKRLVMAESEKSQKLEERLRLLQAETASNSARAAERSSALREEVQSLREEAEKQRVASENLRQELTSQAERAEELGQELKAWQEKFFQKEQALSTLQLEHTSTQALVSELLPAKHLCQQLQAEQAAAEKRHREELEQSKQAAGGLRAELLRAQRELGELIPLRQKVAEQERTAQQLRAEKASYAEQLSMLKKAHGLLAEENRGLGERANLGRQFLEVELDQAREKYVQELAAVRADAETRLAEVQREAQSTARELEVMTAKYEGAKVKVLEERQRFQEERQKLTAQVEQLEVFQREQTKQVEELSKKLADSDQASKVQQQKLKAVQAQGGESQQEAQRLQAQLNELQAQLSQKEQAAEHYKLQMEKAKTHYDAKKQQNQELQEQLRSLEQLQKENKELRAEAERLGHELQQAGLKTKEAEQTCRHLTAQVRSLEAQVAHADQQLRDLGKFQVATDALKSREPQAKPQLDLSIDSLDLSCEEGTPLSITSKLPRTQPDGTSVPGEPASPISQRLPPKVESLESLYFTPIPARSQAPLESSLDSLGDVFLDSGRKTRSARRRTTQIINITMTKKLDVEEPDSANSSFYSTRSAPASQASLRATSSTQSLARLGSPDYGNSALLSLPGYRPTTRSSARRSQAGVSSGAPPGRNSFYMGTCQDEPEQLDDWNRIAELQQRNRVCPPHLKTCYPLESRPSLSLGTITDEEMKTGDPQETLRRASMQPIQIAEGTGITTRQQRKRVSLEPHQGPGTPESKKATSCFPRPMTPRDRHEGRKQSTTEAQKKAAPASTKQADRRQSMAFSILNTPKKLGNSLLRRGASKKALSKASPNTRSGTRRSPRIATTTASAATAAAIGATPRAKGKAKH

Assays:
Experiment in all cases: log2 fold change, soluble protein after heating vs DMSO (PISA); higher = thermal stabilisation; K562 cells, 10 uM, 30 min; active = over 0.2 and 3.5 SD of the protein, either way, in both replicates (recomputed)
erlotinib = compound: C#Cc1cccc(Nc2ncnc3cc(OCCOC)c(OCCOC)cc23)c1 [erlotinib]
Procedure, shortened: (§1)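 Soluble protein was defined as the supernatant after 21,000xg for 90 min. It came from K562 cells at 2×10^6 cells/mL given 10 μM compound for 30 min, heated in aliquots for 3 min across 48°C-58°C, pooled, and extracted in PBS with 0.5% NP-40 at 4°C, and was quantified by TMTpro 16plex LC-MS/MS with equalised channel sums. Thermal stability against control samples, from duplicates, is reported as log2 fold change.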

[1] = compound: C/C(=N\NC(=O)C1=CC(=CC=C1)S(=O)(=O)N2CCOCC2)/C3=C(C=CC(=C3)Cl)O
Procedure, shortened: as §1

[2] = compound: C1=CC(=C(C=C1Cl)C2=NC3=NC=CN=C3C(=N2)NC4=CC=NC=C4)F
Procedure, shortened: as §1

[3] = compound: C1=CC(=CC=C1C2=NC3=C(N2)C=C(C=C3)C(=O)N)OC4=CC=C(C=C4)Cl
Procedure, shortened: as §1

[4] = compound: C1=CC2=C(C=CC(=C2)/C=C\3/C(=O)NC(=NCC4=CC=CS4)S3)N=C1
Procedure, shortened: as §1

[5] = compound: C1=CC2=NC=CN=C2C=C1/C=C/3\C(=O)NC(=O)S3
Procedure, shortened: as §1

[6] = compound: C1=CC=C(C=C1)C2=NC(=C(N2)C3=CC=NC=C3)C4=CC(=C(C=C4)Cl)O
Procedure, shortened: as §1

[7] = compound: C1=CC=C2C(=C1)C3=NNC4=CC=CC(=C43)C2=O
Procedure, shortened: as §1

[8] = compound: C1CCN(C1)C(=O)NC2=CC=CC(=C2)NC3=NC=C(C(=N3)NCCC4=CN=CN4)Br
Procedure, shortened: as §1

[9] = compound: C1CN(CCC1(CC2=CC=C(C=C2)Cl)N)C3=NC=NC4=C3C=CN4
Procedure, shortened: as §1

Measured: log2 fold change

OSTM1 (UniProt Q86WC4)
inactive: erlotinib 0.034 | [1] 0.111 | [2] 0.077 | [3] 0.107 | [4] -0.106 | [5] 0.001 | [6] 0.044 | [7] -0.047 | [8] -0.035 | [9] -0.002

OGN (UniProt P20774)
inactive: erlotinib 0.192 | [1] -0.126 | [2] 0.015 | [3] -0.013 | [4] 0.056 | [5] -0.178 | [6] -0.092 | [7] 0.063 | [8] -0.11 | [9] 0.058

OAT (UniProt P04181)
inactive: erlotinib 0.063 | [1] 0.099 | [2] 0.045 | [3] -0.091 | [4] 0.042 | [5] -0.151 | [6] -0.183 | [7] -0.001 | [8] -0.037 | [9] -0.023

NSUN2 (UniProt Q08J23)
inactive: erlotinib -0.017 | [1] 0.137 | [2] -0.002 | [3] 0.038 | [4] -0.018 | [5] 0.006 | [6] -0.052 | [7] -0.112 | [8] -0.067 | [9] 0.064

OSBPL8 (UniProt Q9BZF1)
inactive: erlotinib 0.243 | [1] 0.156 | [2] -0.212 | [3] 0.021 | [4] 0.005 | [5] -0.028 | [6] 0.077 | [7] -0.005 | [8] -0.048 | [9] -0.085

NUP85 (UniProt Q9BW27)
inactive: erlotinib 0.046 | [1] 0.08 | [2] 0.037 | [3] 0.036 | [4] 0 | [5] 0.028 | [6] -0.012 | [7] -0.066 | [8] -0.051 | [9] 0.008

NUP62 (UniProt P37198)
inactive: erlotinib 0.06 | [1] 0.069 | [2] -0.003 | [3] -0.014 | [4] 0.027 | [5] 0.094 | [6] 0.004 | [7] -0.002 | [8] -0.055 | [9] -0.089

NSRP1 (UniProt Q9H0G5)
inactive: erlotinib -0.039 | [1] -0.02 | [2] -0.196 | [3] 0.063 | [4] -0.169 | [5] -0.024 | [6] -0.097 | [7] 0.042 | [8] 0.012 | [9] -0.076

Random excerpt: 2 entries already listed
NUP62 (UniProt P37198)
inactive: erlotinib 0.06 | [1] 0.069 | [2] -0.003 | [3] -0.014 | [4] 0.027 | [5] 0.094 | [6] 0.004 | [7] -0.002 | [8] -0.055 | [9] -0.089

NSUN2 (UniProt Q08J23)
inactive: erlotinib -0.017 | [1] 0.137 | [2] -0.002 | [3] 0.038 | [4] -0.018 | [5] 0.006 | [6] -0.052 | [7] -0.112 | [8] -0.067 | [9] 0.064

Continuation.

NUSAP1 (UniProt Q9BXS6)
inactive: erlotinib -0.029 | [1] -0.114 | [2] -0.166 | [3] 0.004 | [4] -0.02 | [5] 0.026 | [6] -0.009 | [7] -0.009 | [8] 0.058 | [9] -0.028

NUP93 (UniProt Q8N1F7)
inactive: erlotinib 0.007 | [1] 0.066 | [2] -0.037 | [3] -0.007 | [4] 0.035 | [5] 0.033 | [6] -0.003 | [7] -0.111 | [8] -0.044 | [9] -0.095

OCIAD1 (UniProt Q9NX40)
inactive: erlotinib -0.005 | [1] -0.013 | [2] -0.013 | [3] 0.017 | [4] -0.01 | [5] 0.027 | [6] 0.016 | [7] -0.037 | [8] -0.014 | [9] 0.043

NUP205 (UniProt Q92621)
inactive: erlotinib 0.047 | [1] 0.131 | [2] -0.1 | [3] -0.031 | [4] 0.068 | [5] 0 | [6] 0.016 | [7] -0.146 | [8] -0.063 | [9] -0.017

OARD1 (UniProt Q9Y530)
inactive: erlotinib 0.109 | [1] 0.054 | [2] 0.003 | [3] -0.045 | [4] 0.088 | [5] 0 | [6] 0.045 | [7] 0.075 | [8] -0.087 | [9] 0.023

NUP107 (UniProt P57740)
inactive: erlotinib -0.05 | [1] 0.004 | [2] -0.128 | [3] 0.063 | [4] 0.04 | [5] 0.065 | [6] -0.037 | [7] -0.192 | [8] -0.145 | [9] -0.005

OXSM (UniProt Q9NWU1)
inactive: erlotinib -0.079 | [1] 0.024 | [2] 0.005 | [3] 0.055 | [4] -0.052 | [5] -0.001 | [6] 0.053 | [7] -0.034 | [8] -0.042 | [9] 0.019

OPA1 isoform 2 (UniProt O60313)
inactive: erlotinib 0.041 | [1] 0.081 | [2] 0.031 | [3] -0.021 | [4] 0.07 | [5] 0.01 | [6] 0.126 | [7] 0.027 | [8] -0.006 | [9] 0.078

OTC (UniProt P00480)
inactive: erlotinib 0.24 | [1] -0.232 | [2] -0.079 | [3] -0.111 | [4] 0.325 | [5] 0.04 | [6] -0.225 | [7] -0.065 | [8] 0.253 | [9] -0.058

NUP35 (UniProt Q8NFH5)
inactive: erlotinib 0.064 | [1] -0.011 | [2] 0.045 | [3] -0.012 | [4] 0.036 | [5] 0.039 | [6] -0.024 | [7] -0.127 | [8] -0.073 | [9] -0.061

OTUB1 (UniProt Q96FW1)
inactive: erlotinib -0.003 | [1] 0.082 | [2] 0.067 | [3] -0.021 | [4] 0.003 | [5] 0.02 | [6] 0.072 | [7] 0.018 | [8] -0.004 | [9] -0.001

NUB1 (UniProt Q9Y5A7)
inactive: erlotinib 0.071 | [1] 0.118 | [2] 0.039 | [3] -0.011 | [4] -0.066 | [5] -0.007 | [6] -0.091 | [7] 0.069 | [8] 0.04 | [9] -0.163

OTUD5 isoform 5 (UniProt Q96G74)
inactive: erlotinib -0.02 | [1] -0.003 | [2] 0.043 | [3] 0.039 | [4] 0.009 | [5] 0.019 | [6] 0.079 | [7] 0.046 | [8] -0.073 | [9] 0.008

NUP153 (UniProt P49790)
inactive: erlotinib 0.012 | [1] -0.01 | [2] -0.06 | [3] 0.012 | [4] -0.029 | [5] 0.054 | [6] -0.046 | [7] -0.141 | [8] -0.059 | [9] -0.003

NUP43 (UniProt Q8NFH3)
inactive: erlotinib -0.004 | [1] -0.017 | [2] 0.017 | [3] 0.038 | [4] 0.04 | [5] 0.016 | [6] 0.054 | [7] -0.061 | [8] -0.062 | [9] 0.019

NSMCE3 (UniProt Q96MG7)
inactive: erlotinib -0.032 | [1] 0.018 | [2] 0.04 | [3] 0.053 | [4] 0.028 | [5] 0.019 | [6] -0.012 | [7] 0.029 | [8] 0.01 | [9] 0.048

PAAF1 (UniProt Q9BRP4)
inactive: erlotinib 0.038 | [1] 0.032 | [2] 0.097 | [3] 0.068 | [4] -0.009 | [5] 0.009 | [6] 0.027 | [7] 0 | [8] 0.003 | [9] 0.009

NUDT5 (UniProt Q9UKK9)
inactive: erlotinib 0.024 | [1] -0.003 | [2] 0.075 | [3] 0.043 | [4] -0.066 | [5] 0.032 | [6] 0.086 | [7] -0.008 | [8] 0.029 | [9] 0.039

NUMB (UniProt P49757)
inactive: erlotinib 0.016 | [1] -0.012 | [2] -0.048 | [3] 0.018 | [4] -0.001 | [5] 0.044 | [6] -0.004 | [7] -0.009 | [8] -0.087 | [9] 0.021

NUDT2 (UniProt P50583)
inactive: erlotinib -0.113 | [1] 0.065 | [2] 0.035 | [3] 0.223 | [4] 0.029 | [5] 0.049 | [6] 0.008 | [7] 0.034 | [8] 0.031 | [9] -0.015

NUMA1 (UniProt Q14980)
inactive: erlotinib -0.03 | [1] -0.006 | [2] -0.109 | [3] 0.017 | [4] 0.02 | [5] 0.019 | [6] 0.031 | [7] -0.054 | [8] -0.055 | [9] -0.211

NSUN6 (UniProt Q8TEA1)
inactive: erlotinib 0.016 | [1] 0.053 | [2] 0.063 | [3] 0.045 | [4] 0.017 | [5] -0.011 | [6] 0.03 | [7] -0.001 | [8] -0.025 | [9] -0.02
